HELM strings list residues between dots; [ac] is acetyl, [am] amide, other brackets name non-standard units.
Assay: general procedure: Fmoc solid-phase peptide synthesis; WANG resin (GL Biochem (Shanghai) Ltd.)

PEPTIDE1{R.R.R.R.R.R.R.R.R.R.R.R.R.R.R}$$$$V2.0 [R15 sulfate]
purity (crude or final not stated) (late stage modification step, HPLC-UV (stated for R15 sulfate)): higher than 98%
step yield (late stage modification step, average yield, sulfate): higher than 70%
final purity (method not given) (whole synthesis, HPLC-UV (stated for R15 sulfate)): higher than 99.0%

Reference: patent EP2982680B1 (Academy of Military Medical Sciences, priority 2013, dated 2014)
